No constants are given. Whether binding was seen depends on the method and setting. In cells and extracts the contact can be indirect. For some assays here: Binding calls can cover weak binding; strength is not graded here. Sequences can lack the tags named with a protein.

Assay [1] addresses T1, FLAG-tagged human R15B 639–713 (human) (UniProt Q5SWA1).
T1 sequence: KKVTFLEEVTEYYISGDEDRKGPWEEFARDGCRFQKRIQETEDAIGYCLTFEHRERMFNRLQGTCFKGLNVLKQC
Description: co-IP; FLAG-R15 constructs transfected into HEK 293T; lysates (50 mM Tris-HCl pH 7.4, 10 mM NaCl, 100 mM KCl, 0.1 µM CaCl2, 0.5 mM MgCl2, 0.5 mM TCEP) incubated overnight at 4°C with anti-FLAG M2 magnetic beads, washed three times, eluted by boiling in LDS; immunoblots for endogenous P-eIF2α, total eIF2α, PP1, actin. (A western blot detects proteins with antibodies after separation by electrophoresis.)

The target in assay [2] is T2, FLAG-tagged human R15B 1–340 (human) (UniProt Q5SWA1).
T2 sequence: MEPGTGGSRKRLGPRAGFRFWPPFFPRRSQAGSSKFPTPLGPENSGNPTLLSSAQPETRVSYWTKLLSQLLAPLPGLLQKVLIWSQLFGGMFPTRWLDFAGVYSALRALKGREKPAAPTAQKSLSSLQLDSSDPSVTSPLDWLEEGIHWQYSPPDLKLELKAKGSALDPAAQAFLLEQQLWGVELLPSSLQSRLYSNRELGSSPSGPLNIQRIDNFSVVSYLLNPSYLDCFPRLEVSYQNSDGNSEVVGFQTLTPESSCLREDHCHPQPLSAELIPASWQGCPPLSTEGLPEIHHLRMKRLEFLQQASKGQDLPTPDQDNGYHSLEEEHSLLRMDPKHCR
Described as above.

In the case of “PP1 (catalytic subunit of protein phosphatase 1) (human (endogenous in HEK 293T)) (enzyme)”, the binding result is listed as “binds” in assay [1] and “no binding” in assay [2].

Values taken from PMC8633803.
